# In all, about 220,000 compounds went through this assay and about 770 (0.35%) were called active. Inconclusive means that the source gave no clear call. Such entries were picked first, then a sample of the others. Rule as the data show it: active = binding response below about 49% or above about 150%; inconclusive = no clear call, values can overlap the other calls; inactive = in between.
# The chains behind the UniProt entries cited, without tags or fusion partners.
# UniProt P09471, whole entry, looked up: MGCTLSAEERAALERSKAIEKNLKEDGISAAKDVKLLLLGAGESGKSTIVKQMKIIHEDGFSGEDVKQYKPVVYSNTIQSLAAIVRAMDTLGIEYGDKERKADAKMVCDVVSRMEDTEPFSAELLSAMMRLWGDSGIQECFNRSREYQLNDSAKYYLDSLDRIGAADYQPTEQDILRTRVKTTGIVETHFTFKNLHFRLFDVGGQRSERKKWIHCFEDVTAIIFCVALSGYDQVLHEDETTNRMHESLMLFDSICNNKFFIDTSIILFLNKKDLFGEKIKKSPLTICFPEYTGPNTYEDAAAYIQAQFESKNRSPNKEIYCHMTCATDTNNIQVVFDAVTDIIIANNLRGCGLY
# Biological target: Guanine nucleotide-binding protein G(o) subunit alpha (Homo sapiens) (UniProt P09471)
# Test: RGS7-Galphao binding modulators, primary screen, biochemical, multiplexed bead flow cytometry (AID 1439);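 also: fluorescent Galphao held in activated GDP-AlF4 state binding bead-coupled RGS7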
# Details: at 10 µM, actives lie on both sides
row,SMILES,binding response (% of control)
1,CCC(C)N1C(=O)S/C(=C/c2ccc(N3CCOCC3)cc2C)C1=O (stereo not given),inactive: 99.5%
2,COc1cc(C2C(C#N)=C(N)OC3=C2C(=O)CC(C)(C)C3)cc([N+](=O)[O-])c1O (stereo not given),inconclusive: 133%
3,Cc1ccc(-c2nn(C)c(=O)c3ccccc23)cc1CNC(=O)NC1CCCCC1,inconclusive: 112%
4,N=c1c2c(-c3ccccc3)c(-c3ccccc3)n(Cc3ccco3)c2ncn1Cc1ccccc1,inactive: 98.5%
5,CCOc1ccc(C(CCc2ccccc2)NC(=O)c2ccccc2OC)cc1OCC (stereo not given),inactive: 111%
6,CC1(C)Cc2cccc(C(=O)NC3CCN(Cc4ccccc4)CC3)c2O1,inconclusive: 137%
7,NC(=S)Nc1cc(Cl)ccc1Cl,inconclusive: 16.2%
8,COc1ccccc1N1CCN(/N=C/c2cccc(OC)c2OC)CC1,inconclusive: 102%
9,O=C(Nc1ccc(S(=O)(=O)N2CCOCC2)cc1)c1cc(-c2cc(Cl)ccc2O)n[nH]1,inconclusive: 80.1%
10,COc1ccc([N+](=O)[O-])cc1NS(=O)(=O)c1ccc(C)cc1,inconclusive: 117%
11,O=C(CCN1CCOCC1)NNC(=O)/C(=C/c1ccccc1)NC(=O)c1ccccc1,inactive: 54.3%
12,Cc1ccc(Nc2nnc(-c3ccc4c(c3)OCO4)o2)c(C)c1,inconclusive: 13.4%
13,CCS(=O)CC(=O)Nc1c(-c2ccccc2)oc2ccccc2c1=O (stereo not given),inconclusive: 111%
14,NC1=NC[C@@H](Cc2ccc(O)cc2)N1CCCCC1CCCCC1,inconclusive: 103%
15,Oc1[nH]c(N=C2N=c3ccccc3=N2)c2ccccc12,inconclusive: 191%
16,Cc1cccc(NC(=O)C23CCC(C)(C(=O)O2)C3(C)C)c1 (stereo not given),inconclusive: 91.7%
17,COc1ccc(C2C(C#N)=C(N)Oc3c2sc2nc(C)cc(C)c32)cc1 (stereo not given),inactive: 117%
18,CC(=O)c1ccc(N2CCN(S(=O)(=O)c3cccc4nonc34)CC2)cc1,inconclusive: 120%
19,Cc1cc2c(NC(=O)Nc3ccc(C(C)(C)C)cc3)cccc2nn1,inconclusive: -98.1%
20,O=C(Oc1ccc(Br)cc1)c1n[nH]c(=O)c2ccccc12,inconclusive: 108%
21,C/C(=N\OCC(=O)Nn1c(=O)[nH]c2ccccc2c1=O)c1cccs1,inconclusive: 107%
22,COc1ccc(-c2noc(CCCC(=O)Nc3ccc(C(N)=O)cc3)n2)cc1OC,inconclusive: 68.2%
23,Cc1cc(C)cc(NC(=S)NC2CC3CCCC(C2)N3C2CC2)c1 (stereo not given),inconclusive: 93.2%

# Fetched by compound from the list above, four records:
row,SMILES,binding response (% of control)
13,CCS(=O)CC(=O)Nc1c(-c2ccccc2)oc2ccccc2c1=O (stereo not given),inconclusive: 111%
11,O=C(CCN1CCOCC1)NNC(=O)/C(=C/c1ccccc1)NC(=O)c1ccccc1,inactive: 54.3%
2,COc1cc(C2C(C#N)=C(N)OC3=C2C(=O)CC(C)(C)C3)cc([N+](=O)[O-])c1O (stereo not given),inconclusive: 133%
14,NC1=NC[C@@H](Cc2ccc(O)cc2)N1CCCCC1CCCCC1,inconclusive: 103%

# Continued.

row,SMILES,binding response (% of control)
1,COc1ccc(/C=N/NC(=O)CC(=O)NC2CCCCC2)cc1,inactive: 104%
2,NC(=O)CSc1nnc(-c2cnccn2)n1Cc1ccco1,inconclusive: 88.1%
3,CN(NC1OC(=O)c2ccccc21)c1c([N+](=O)[O-])cc(C(F)(F)F)cc1[N+](=O)[O-] (stereo not given),inconclusive: 135%
4,Cc1nc2ccccc2cc1C(=O)Nc1ccccc1Cl,active: 157% [activator]
5,CC1(C(=O)NC2CCCCC2)CCC(=O)N1Cc1ccc2c(c1)OCO2 (stereo not given),inconclusive: 56.5%
6,C=CCCN(Cc1ccccc1)S(=O)(=O)c1ccccc1Br,inconclusive: 129%
7,O=c1c2cc(Cl)ccc2nc(-c2ccc(Cl)c(Cl)c2)n1O,inconclusive: 107%
8,Cc1ccc(-c2cc([C@H]3[C@H]4C=CC[C@@H](C)[C@@H]4C(=O)N3Cc3ccccc3)ccc2F)cc1,inconclusive: 132%
9,CCCCC(=O)N1C/C=C\C(c2ccc(OC)cc2)N(Cc2ccc(F)cc2)C(=O)[C@H]1Cc1ccccc1 (stereo not given in full),inconclusive: 108%
10,COC(=O)Nc1nn(-c2ccc(Cl)cc2)c(=O)c(C#N)c1C,inconclusive: 109%
11,COc1cc(O)c(C(CCN2CCCCC2)c2ccc(N(C)C)cc2)c(OC)c1 (stereo not given),inconclusive: 96.9%
12,CCCn1nc(C(=O)OCC(=O)c2ccccc2)c2ccccc2c1=O,inconclusive: 102%
13,COc1ncnc2c1oc1nc(C)c3c(c12)CC(C)(C)OC3,inconclusive: 124%
14,Cn1c(Cc2ccccc2)nnc1SCC(=O)c1cccs1,inactive: 100%
15,Nn1c(Cc2ccccc2)nc2sc3c(c2c1=O)CCC3,inconclusive: 25.9%
16,COc1cc(CNCCCN2CCOCC2)ccc1OCC(=O)NC(C)(C)C,inconclusive: 113%
17,COc1cccc(OC)c1-c1nn(-c2ncc(C(F)(F)F)cc2Cl)c(=O)o1,inconclusive: 107%
18,COC(=O)C(NS(=O)(=O)c1ccccc1Br)C(C)C (stereo not given),inconclusive: 94.3%
19,CN(C)C(=O)/C=C\c1cn(-c2ccccc2)nc1-c1ccc2c(c1)OCCO2,inconclusive: 85.1%
20,Fc1ccc(Nc2nnc(C(F)(F)F)s2)cc1Cl,inconclusive: 63.2%
21,CCCN1CNC(=S)N(c2ccc(C)cc2C)C1,inconclusive: 438%
22,Cc1csc(SCC(=O)NC(=O)NC2CCCC2)n1,inactive: 91.6%
23,CCCc1nn2c(=O)c(C(c3cccc(Cl)c3)c3c(O)nc4sc(CCC)nn4c3=O)c(O)nc2s1,inactive: 104%

row,SMILES,binding response (% of control)
1,COc1cc(/C=C(/C#N)C(=O)Nc2ccccc2)c(Br)cc1OCc1ccc(C(=O)O)cc1,inconclusive: 47.3%
2,Cc1ccc(N2C(=O)CSC2c2cccnc2)c(Cl)c1 (stereo not given),inconclusive: 114%
3,C=CCn1c(COc2ccccc2)nnc1SC(C)C(=O)N/N=C/c1cc(Cl)ccc1O (stereo not given),inactive: 88.1%
4,CN1C(C(=O)NCc2cccc(C(F)(F)F)c2)CC2Cn3c(nc4cc5ccccc5cc43)C21 (stereo not given),inconclusive: 110%
5,CS(=O)(=O)c1ccc(Cl)c(NC(=O)COC(=O)c2c(Cl)cccc2Cl)c1,inconclusive: 97.2%
6,CCN(CC)C(=O)CSc1nnc2nnc3cc(Cl)ccc3n12,inconclusive: 127%
7,O=C(c1ccc([N+](=O)[O-])cc1[N+](=O)[O-])n1cnc2ccccc21,inactive: 98.1%
8,O=C1CSC(c2cccnc2)N1CC1CC1 (stereo not given),inconclusive: 105%
9,CC(=O)C1=C(O)C(=O)N(Cc2ccco2)C1c1cccc(F)c1 (stereo not given),inactive: 104%
10,CCc1ccc2oc(-c3ccc(OC)cc3)cc(=Nc3c(C)n(C)n(-c4ccccc4)c3=O)c2c1,inactive: 104%
11,CCOC(=O)c1cnc(-n2nc(C)cc2C)[nH]c1=O,inconclusive: -67.4%
12,O=S(=O)(/C=C/c1ccccc1)N1CCN(Cc2ccccc2)CC1,inactive: 105%
13,Cc1ccc2c(CSc3nnc(C4CC4)n3N)cc(=O)oc2c1,inactive: 101%
14,CCC(C)(C)NC(=O)C1CCN(S(=O)(=O)c2cccs2)CC1,active: 424% [activator]
15,Cc1cc(=O)[nH]c(NN=C2CCC(C(C)(C)C)CC2)n1 (stereo not given),inconclusive: 105%
16,O=C1CSC(c2ccc(Cl)cc2)N1Nc1nc(N2CCOCC2)nc(N2CCOCC2)n1 (stereo not given),inconclusive: 104%
17,c1ccc(OCc2nnc3n2N=C(c2ccccc2)CS3)cc1,inconclusive: 70.5%
18,CCOC(=O)CNC(=S)NN(C)C,inconclusive: -172%
19,Cc1ccc(-n2cc(S(=O)(=O)c3ccc(C)cc3)[nH]c2=O)cc1,inconclusive: 85.6%
20,CCOc1[nH]n(-c2ccccc2)c(=O)c1C=Nc1ccc(C)cc1,inconclusive: 94.4%
21,Fc1ccc(Nc2nc(NCc3ccco3)c3ccccc3n2)cc1,inconclusive: 94.5%
22,O=c1[nH]cc(N2CCCCCC2)c(=O)[nH]1,inconclusive: 118%
23,O=C(Nc1nnc(-c2ccncc2)s1)Nc1ccccc1F,inconclusive: 113%

row,SMILES,binding response (% of control)
1,COc1ccc(NC(=O)c2ccc(COCC(F)(F)C(F)F)cc2)cc1,inactive: 93.1%
2,O=S(=O)(NCCN1CCOCC1)c1ccc(Cl)s1,inconclusive: 105%
3,CSC1=N/C(=C/c2ccc(-n3cncn3)cc2)C(=O)N1,inconclusive: 93.2%
4,COc1ccc(CNC(=O)COC(=O)c2ccccc2C(=O)c2ccccc2)cc1,inconclusive: 113%
5,N=C1/C(=C\c2coc3ccccc3c2=O)C(=O)N=C2SC(c3ccncc3)=NN12,inconclusive: 81.8%
6,Cc1nnc(SCCn2c(N3CCC(Cc4ccccc4)CC3)nc3c2c(=O)[nH]c(=O)n3C)s1,inconclusive: 109%
7,O=P(OC1CCCCC1)(OC1CCCCC1)C(Nc1ccccc1)c1cccnc1 (stereo not given),inconclusive: 102%
8,COC(=O)c1ccc(S(=O)(=O)N(CCO)Cc2ccccc2)n1C,inconclusive: 84.6%
9,CCOc1cccc2cc(C(=O)NCCC3=CCCCC3)c(=O)oc12,inconclusive: 104%
10,O=c1c2ccccc2nnn1CCN1CCOCC1,inactive: 97.8%
11,CCCCCC(=O)Nc1cccc(C2=NOC3(C2)C[C@H](C(N)=O)N(C(=O)c2ccccc2)C3)c1 (stereo not given in full),inconclusive: 58.4%
12,Oc1ccc(-c2cn3ccccc3n2)cc1,inconclusive: 117%
13,Cc1ccc(S(=O)(=O)Nc2cc(-c3ccccc3)nn2C)cc1,inconclusive: 17.1%
14,Cc1nc(NCCc2ccccc2)c(C#N)c(C)c1[N+](=O)[O-],inactive: 99.5%
15,CN(NS(=O)(=O)c1ccc(Cl)cc1)c1cnn(C)c(=O)c1Cl,inconclusive: 155%
16,Cc1cc(OCC(=O)N(Cc2ccco2)C2CCS(=O)(=O)C2)cc(C)c1Cl (stereo not given),inconclusive: 150%
17,Cc1cc(=O)[nH]c(-c2cccs2)n1,inconclusive: 143%
18,CC(C)(C)c1oc(C(=O)O)cc1CN1CCOCC1,inconclusive: 131%
19,Cc1ccc(NC(=S)Nc2ccc3[nH]c(=O)[nH]c3c2)cc1,inconclusive: 116%
20,CC(C)CCNC(=O)C(=O)Nc1ccccc1,inactive: 100%
21,CCc1ccc(/C=C2\SC(N3CCCC3)=NC2=O)cc1,inconclusive: 63.8%

# Reference: PubChem BioAssay AID1439 (NMMLSC, 2008)
